Laboratory results reported in doi:10.1101/727677.
Results are given in words; binding and its absence hold for the method and conditions named. Binding seen in cells or lysates may run through a third protein. Some results given as binding are weak or reduced against the parent protein; the word gives no strength. For some assays here: Where a sequence is shown, tags or fusion partners need not be part of it.

The chains behind the UniProt entries cited, without tags or fusion partners. Where a name states a change or a piece, a line headed by the entry shows the natural chain unless it says otherwise. Residues count along the entry.
UniProt P17948, 27-1338: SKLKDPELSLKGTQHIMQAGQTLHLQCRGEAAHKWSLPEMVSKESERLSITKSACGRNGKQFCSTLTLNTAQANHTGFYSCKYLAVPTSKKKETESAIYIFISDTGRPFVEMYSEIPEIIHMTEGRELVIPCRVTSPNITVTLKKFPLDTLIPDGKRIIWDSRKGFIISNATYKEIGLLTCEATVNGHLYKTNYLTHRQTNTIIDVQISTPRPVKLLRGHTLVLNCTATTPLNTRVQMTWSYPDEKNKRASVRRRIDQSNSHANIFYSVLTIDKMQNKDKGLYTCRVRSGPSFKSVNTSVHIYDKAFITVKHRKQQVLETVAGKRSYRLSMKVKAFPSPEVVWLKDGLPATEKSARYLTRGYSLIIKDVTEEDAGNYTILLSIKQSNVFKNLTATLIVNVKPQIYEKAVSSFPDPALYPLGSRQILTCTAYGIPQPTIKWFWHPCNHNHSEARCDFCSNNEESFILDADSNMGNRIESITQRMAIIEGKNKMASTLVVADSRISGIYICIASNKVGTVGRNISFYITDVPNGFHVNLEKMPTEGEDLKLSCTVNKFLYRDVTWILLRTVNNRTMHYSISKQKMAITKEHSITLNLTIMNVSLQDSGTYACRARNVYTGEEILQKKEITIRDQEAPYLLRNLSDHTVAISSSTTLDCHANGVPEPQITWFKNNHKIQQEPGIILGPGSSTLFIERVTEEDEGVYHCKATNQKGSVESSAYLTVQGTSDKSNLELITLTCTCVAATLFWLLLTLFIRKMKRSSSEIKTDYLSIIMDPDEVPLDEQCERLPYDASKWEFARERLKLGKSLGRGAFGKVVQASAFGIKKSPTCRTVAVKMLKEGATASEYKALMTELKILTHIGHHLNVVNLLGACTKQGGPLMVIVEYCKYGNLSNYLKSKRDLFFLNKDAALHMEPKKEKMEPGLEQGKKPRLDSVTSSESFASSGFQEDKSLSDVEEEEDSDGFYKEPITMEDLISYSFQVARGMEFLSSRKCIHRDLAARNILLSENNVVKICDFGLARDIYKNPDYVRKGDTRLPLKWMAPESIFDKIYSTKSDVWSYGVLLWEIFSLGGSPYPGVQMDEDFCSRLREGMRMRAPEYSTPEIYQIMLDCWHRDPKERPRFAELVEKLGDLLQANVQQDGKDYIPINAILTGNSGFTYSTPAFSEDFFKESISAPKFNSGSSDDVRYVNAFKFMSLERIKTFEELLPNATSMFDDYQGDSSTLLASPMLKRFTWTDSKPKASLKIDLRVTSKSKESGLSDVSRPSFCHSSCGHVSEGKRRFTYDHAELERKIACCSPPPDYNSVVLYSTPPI
UniProt P17948, whole entry, looked up, stated change not applied: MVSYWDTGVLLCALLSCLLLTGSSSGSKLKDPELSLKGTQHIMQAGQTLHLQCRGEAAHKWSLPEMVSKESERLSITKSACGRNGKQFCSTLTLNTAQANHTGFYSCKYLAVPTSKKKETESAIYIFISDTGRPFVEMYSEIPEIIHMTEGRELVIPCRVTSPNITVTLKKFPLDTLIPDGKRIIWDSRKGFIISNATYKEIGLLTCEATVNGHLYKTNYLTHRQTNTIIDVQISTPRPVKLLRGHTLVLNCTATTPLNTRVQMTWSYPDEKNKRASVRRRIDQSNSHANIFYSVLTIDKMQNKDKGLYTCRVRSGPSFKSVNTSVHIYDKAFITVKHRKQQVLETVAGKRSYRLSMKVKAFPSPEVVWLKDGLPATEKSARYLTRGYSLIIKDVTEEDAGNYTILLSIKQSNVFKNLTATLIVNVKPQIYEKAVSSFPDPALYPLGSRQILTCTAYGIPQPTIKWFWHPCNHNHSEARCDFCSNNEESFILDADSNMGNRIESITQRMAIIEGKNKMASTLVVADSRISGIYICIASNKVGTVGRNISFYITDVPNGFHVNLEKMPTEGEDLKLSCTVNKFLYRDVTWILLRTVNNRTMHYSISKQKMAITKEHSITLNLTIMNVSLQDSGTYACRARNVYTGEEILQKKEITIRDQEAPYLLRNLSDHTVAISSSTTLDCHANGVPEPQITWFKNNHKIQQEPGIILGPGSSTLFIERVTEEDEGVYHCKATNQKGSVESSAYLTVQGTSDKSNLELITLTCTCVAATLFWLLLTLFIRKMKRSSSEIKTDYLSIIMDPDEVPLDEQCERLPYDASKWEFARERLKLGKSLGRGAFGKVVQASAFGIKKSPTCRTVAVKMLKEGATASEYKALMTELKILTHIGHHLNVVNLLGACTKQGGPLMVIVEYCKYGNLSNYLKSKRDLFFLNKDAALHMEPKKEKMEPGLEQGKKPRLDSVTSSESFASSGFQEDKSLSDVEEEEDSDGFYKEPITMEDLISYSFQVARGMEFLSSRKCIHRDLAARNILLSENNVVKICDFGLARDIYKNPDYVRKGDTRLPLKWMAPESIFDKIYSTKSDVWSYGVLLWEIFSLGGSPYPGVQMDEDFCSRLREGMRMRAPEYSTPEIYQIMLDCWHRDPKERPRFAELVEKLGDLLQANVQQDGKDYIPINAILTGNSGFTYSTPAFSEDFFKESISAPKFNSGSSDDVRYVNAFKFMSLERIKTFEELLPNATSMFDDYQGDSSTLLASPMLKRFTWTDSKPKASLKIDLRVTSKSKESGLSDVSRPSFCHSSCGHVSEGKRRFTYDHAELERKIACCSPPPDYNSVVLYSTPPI

Assays:
V5-tagged VEGFR1 = V5-tagged VEGFR1 (UniProt P17948); assay: FRET or BRET
[1] = target: VEGFR1 (expression vector, co-immunoprecipitation in HeLa) (UniProt P17948); assay: co-IP
YKEP deletion VEGFR1 = YKEP deletion VEGFR1 (UniProt P17948); assay: co-IP
[2] = target: VEGFR1 (endogenous, HUVEC) (human (endogenous in HUVEC)) (UniProt P17948); assay: co-IP

B1: Flag-tagged Vav1 (protein, UniProt P15498 1-845)
chain: MELWRQCTHWLIQCRVLPPSHRVTWDGAQVCELAQALRDGVLLCQLLNNLLPHAINLREVNLRPQMSQFLCLKNIRTFLSTCCEKFGLKRSELFEAFDLFDVQDFGKVIYTLSALSWTPIAQNRGIMPFPTEEESVGDEDIYSGLSDQIDDTVEEDEDLYDCVENEEAEGDEIYEDLMRSEPVSMPPKMTEYDKRCCCLREIQQTEEKYTDTLGSIQQHFLKPLQRFLKPQDIEIIFINIEDLLRVHTHFLKEMKEALGTPGAANLYQVFIKYKERFLVYGRYCSQVESASKHLDRVAAAREDVQMKLEECSQRANNGRFTLRDLLMVPMQRVLKYHLLLQELVKHTQEAMEKENLRLALDAMRDLAQCVNEVKRDNETLRQITNFQLSIENLDQSLAHYGRPKIDGELKITSVERRSKMDRYAFLLDKALLICKRRGDSYDLKDFVNLHSFQVRDDSSGDRDNKKWSHMFLLIEDQGAQGYELFFKTRELKKKWMEQFEMAISNIYPENATANGHDFQMFSFEETTSCKACQMLLRGTFYQGYRCHRCRASAHKECLGRVPPCGRHGQDFPGTMKKDKLHRRAQDKKRNELGLPKMEVFQEYYGLPPPPGAIGPFLRLNPGDIVELTKAEAEQNWWEGRNTSTNEIGWFPCNRVKPYVHGPPQDLSVHLWYAGPMERAGAESILANRSDGTFLVRQRVKDAAEFAISIKYNVEVKHIKIMTAEGLYRITEKKAFRGLTELVEFYQQNSLKDCFKSLDTTLQFPFKEPEKRTISRPAVGSTKYFGTAKARYDFCARDRSELSLKEGDIIKILNKKGQQGWWRGEIYGRVGWFPANYVEEDYSEYC
binding (V5-tagged VEGFR1): binds

B2: Vav1 (GFP tagged) (protein, UniProt P15498 1-845)
chain: B1 chain
binding [1]: binds

B3: Vav1 (HA tagged) (protein, UniProt P15498 1-845)
chain: B1 chain
binding [1]: binds
binding (YKEP deletion VEGFR1): no binding

B4: Vav1 (endogenous, HUVEC) (protein, UniProt P15498 1-845)
chain: B1 chain
binding [2]: binds
